US5260210A, “Blood-brain barrier model” (priority 1990, dated 1993)
At least one structure is not confirmed: it was looked up by name or label, or the drawing left a doubt.

Experiments:
[1] = system: bovine brain capillary endothelial cells; test: Transmonolayer (transendothelial cell) electrical resistance in the in vitro BBB model
Method: The degree of tightness of tight junctions can be also assessed by transcellular electrical resistance measurements. For transendothelial cell resistance measurements, cells were grown on a porous solid support, e.g., a filter or membrane attached to a holding device in order adequately to suspend the cellular monolayer, such as the Costar Transwell apparatus or the ICN Cellogen. […] Cells were maintained in a growth medium or physiological saline, and calomel electrodes on each of the endothelial cells are connected by a saturated KCl - 3% agar bridge. Current is passed between two Ag--AgCl electrodes and the voltage measured with a Keithly multimeter. Resistance is calculated from the change in voltage across the monolayer induced when a short current pulse (10-100 μamp) is applied. The resistance of the filter or membrane alone is subtracted. The resistance, multiplied by the surface area of the filter or membrane, yields the resistance in ohms-cm^2.
Bovine brain capillary endothelial cells were grown on polycarbonate filters in a conditioned growth medium containing either 5% or 10% PDHS. In controls, the growth medium contained 5% PDHS (.quadrature.) or 10% PDHS. […]
Bovine brain endothelial cells were dissociated and plated on tissue culture dishes in 50% MEM/FCS - 50% ADCM. […]
Resistance was then measured at various times. […]

[2] = Behavioral assay: opioid-induced analgesia, hot plate; type: in vivo, mouse
Method: Morphine and the naturally occurring opioid peptides, endorphin and enkephalin, bind to μ opioid receptors in the brain and suppress the sensation of pain. […] Mice are placed on a surface uniformly heated to 55° C. The time it takes for the mouse to respond to the heat stimulus by licking its front or hind paws is measured. […] The latency is expressed as % analgesia. [formula] The purpose of these experiments is to test the ability of putative BBB openers to shift the morphine dose response curve to lower doses and thus have analgesic activity when delivered peripherally.

For `OC[C@H]1O[C@@H](n2cnc3c(NC4CCCC4)ncnc32)[C@H](O)[C@@H]1O` [CPA, cyclopentyladenosine], the “effect of adenosine receptor Gi agonists on resistance of brain endothelial cells” value [1] was “effective in reducing the resistance of brain endothelial cells”, the “effect on morphine analgesia” value ([2]; CPA 25 μg/kg (FIG. 4), nitroprusside (FIG. 6)) was “potentiated the effects of morphine, particularly at lower morphine levels” and the “amount of morphine needed for analgesia” value ([2]; mouse, in vivo) was “lowered the amount of morphine that had to be administered to produce analgesia”. For the same compound, the “opening of blood-brain barrier in analgesia test” value ([2]; nitroprusside and CPA: morphine, dipyridamole: enkephalin) was “opened the blood-brain barrier”.
